The numbers were not newly measured in paper PMC8302504, “Efficacy of Fenfluramine and Norfenfluramine Enantiomers and Various Antiepileptic Drugs in a Zebrafish Model of Dravet Syndrome” (Neurochemical Research, 2021), which cites them from elsewhere.

The conditions of this data set: 5 dpf zebrafish larvae, 1 h incubation with 15 µg/mL; cited from earlier work.

`CN(C)CCOC(c1ccccc1)c1ccccc1` [diphenhydramine]: the “head uptake (recovered concentration)” value is given as 115.5 µg/g.
